Reference: PubChem BioAssay AID588497 (NMMLSC, 2011)
Among all 360,000 compounds or so, about 780 (0.22%) were called active. The shares of active, inactive and inconclusive entries below differ from those in the screen. Cut-off read from the data, not from the text of the source: active = inhibition above about 35% (passing the limit was not always enough); inconclusive = no clear call, values can overlap the other calls.

The compounds below were run on Botulinum neurotoxin type F light chain protease (Clostridium botulinum) (assay: BoNT/F light chain protease inhibitors, primary screen, biochemical, flow cytometry, MLPCN library (AID 588497; note: plate controls were buffer without enzyme for full effect and enzyme alone for no effect)). Conditions: Multiplex microsphere protease cleavage assay, at 10 µM, stronger effect = higher value.
For `O=C(O)c1ccc(-c2nnc(-c3cccc(Br)c3)o2)cc1`, the inhibition was inconclusive: -8.7%. `O=[N+]([O-])c1cccnc1Sc1ccc(Br)cc1` was tested, and the inhibition was inconclusive: 74.8%. For `CSC1=C(C#N)C(c2ccc(Cl)cc2)C2=C(CC(C)(C)CC2=O)N1` (stereo unspecified), the inhibition was inactive: -3.1%. For `O=C(O)CSc1nnc(-c2ccc(Cl)cc2)n1-c1ccccc1`, the inhibition was active: 35.7%. In the case of `CCOc1ccc(NC(=O)c2nnn(CC(=O)Nc3ccccc3OC)c2N)cc1`, the inhibition is reported as active: 36%. With `CN1C(=O)c2cccc3c(Br)ccc(c23)C1=O` the inhibition was inconclusive: -110%. For `O=C(O)c1ccc(SCc2ccccc2)nc1`, the inhibition was inconclusive: 42%. `O=C(COc1ccccc1Cl)Nc1cc(Cl)ccc1O` was tested, and the inhibition was inactive: -1.7%. For `O=C(O)c1cc(-c2cccnc2)nc2ccc(Br)cc12`, the inhibition was inactive: 1.5%. With `COC(=O)c1sc(NC(=O)CC(C)C)c(C(=O)OC)c1C` the inhibition was inconclusive: -18.8%. In the case of `CC12CCC(C(=O)NCc3ccc(Cl)cc3)(OC1=O)C2(C)C` (stereo unspecified), the inhibition is reported as inactive: -2.9%. In the case of `CCOc1ccc(NC(=O)CN(C)C(=O)c2ccccc2SCC(=O)N2CCCC2)cc1OCC`, the inhibition is reported as inconclusive: -5.4%. `Nc1cc(=O)[nH]c(SCCSc2ccccc2)n1` was tested, and the inhibition was inconclusive: -10%. `COc1ccc(C2=NN(C(=O)CN3CCCCC3)C(c3ccc(OC)cc3)C2)cc1` (stereo unspecified) was tested, and the inhibition was inconclusive: -19.3%. In the case of `CC(C(=O)Nc1ccc(Cl)cc1Cl)N1C(=O)NC2(CCCCCCC2)C1=O` (stereo unspecified), the inhibition is reported as inactive: -5.6%. With `CCC(C)(C)NC(=O)C(c1cccn1C)N(C(=O)Cn1nnc2ccccc21)c1ccc(F)cc1` (stereo unspecified) the inhibition was inactive: -5.9%. In the case of `COc1ccccc1NS(=O)(=O)c1ccc(C)c(C(=O)N2CCN(c3ccc(O)cc3)CC2)c1`, the inhibition is reported as inactive: -10.9%. In the case of `O=C(CN1c2cccc3cccc(c23)S1(=O)=O)N1CCCCC1`, the inhibition is reported as inactive: -17.2%. With `CCN1CCc2c(sc(NC(=O)c3ccc(S(=O)(=O)N4CCOCC4)cc3)c2C(N)=O)C1` the inhibition was inconclusive: 8.7%. With `O=C(Nc1ccc(F)c(Cl)c1)C1Cc2c(-c3cccc(F)c3)ccnc2O1` (stereo unspecified) the inhibition was inactive: -11%. `Cc1ccc(C2=N/C(=C/c3cccs3)C(=O)N2Nc2ccccc2)cc1` was tested, and the inhibition was active: 42.9%. For `O=C(Nc1ccc(CN2CCOCC2)cc1)c1ccc(F)cc1`, the inhibition was active: 34.9%. `CCCC(=Nc1ccc(N)cc1)C1=C(O)C(C(=O)OC)C(C)(C)CC1=O` (stereo unspecified) was tested, and the inhibition was inactive: 0.2%. In the case of `Cc1nc(C)n(C(C)CNC(=O)c2ccco2)n1` (stereo unspecified), the inhibition is reported as inconclusive: -12.4%. `COc1ccc(CNCCC2(O)CC(C)N(C)CC2C)cc1OC` (stereo unspecified) was tested, and the inhibition was inconclusive: -9.4%. For `CC1CCc2c(sc3nc(C(C)(C)C)nc(N4CCN(C(=O)CCl)CC4)c23)C1` (stereo unspecified), the inhibition was inconclusive: 4.4%. With `O=C(CCC(=O)Nc1nnc(C2CCCCC2)s1)NCc1ccccc1` the inhibition was inconclusive: -37%. With `O=C1c2ccccc2C(O)N1c1ccccc1` (stereo unspecified) the inhibition was inconclusive: -12.5%. `COc1ccc(-c2ccc(CCC(=O)O)n2-c2ccccc2OC)cc1` was tested, and the inhibition was inconclusive: 23.5%. For `O=C(CSc1ccc2ccccc2c1)Nn1cnnc1`, the inhibition was inconclusive: -36.5%. `CC(=O)c1ccc(NC(=O)C(=O)c2cn(CC(=O)N3CCCCC3)c3ccccc23)cc1` was tested, and the inhibition was inactive: -3.3%. For `CC(C)c1cccc(-c2ccc3c(c2)S(=O)(=O)c2cccc(C(=O)NCc4ccco4)c2C3=O)c1`, the inhibition was inactive: 7.4%. In the case of `Brc1ccccc1/C=N/N1CCCCC1`, the inhibition is reported as inconclusive: 1.5%. With `C/C(=N\NC(=O)CN1CCN(Cc2ccccc2)CC1)c1ccncc1` the inhibition was inconclusive: 112%. For `CCOC(=O)Nc1ccc2c(COC(=O)CNS(=O)(=O)c3cccc(Br)c3)cc(=O)oc2c1`, the inhibition was inactive: -5.6%. For `O=C(Nc1cc(Cl)ccc1O)C1CC(c2ccccc2Cl)=NO1` (stereo unspecified), the inhibition was inconclusive: 18.1%. `COc1cccc(NC(=O)CN(C)C(=O)CCC(=O)c2cc(C)sc2C)c1` was tested, and the inhibition was inconclusive: 2.5%. For `COc1ccc(/C=C2/SC(=S)N(c3ccc(S(=O)(=O)Nc4nccs4)cc3)C2=O)cc1`, the inhibition was inconclusive: -31.1%. For `COP(=O)(OC)C(Nc1ccc([N+](=O)[O-])cc1)c1ccccc1` (stereo unspecified), the inhibition was inconclusive: 146%. In the case of `O=C1/C(=C/c2ccc(O)cc2)SC(=S)N1Cc1cccnc1`, the inhibition is reported as inactive: 4.2%. In the case of `O=C(Cc1cccc(F)c1)N1CCCC(CO)(Cc2ccc(F)cc2F)C1` (stereo unspecified), the inhibition is reported as inconclusive: 12.3%. For `CC1CCCN(Cc2c(O)ccc3c(=O)c(-c4nc5ccccc5s4)c(N)oc23)C1` (stereo unspecified), the inhibition was inactive: -10.2%. For `O=C(c1cc(S(=O)(=O)N2CCOCC2)ccc1F)N(CCc1ccccc1)Cc1ccccc1`, the inhibition was inconclusive: -117%. With `O=C1N=C(N2CCCC2)S/C1=C\C=C\c1ccccc1` the inhibition was active: 40.8%. In the case of `C=CCn1c(COc2ccccc2)nnc1SCC(=O)C(C)(C)C`, the inhibition is reported as inconclusive: -27.9%. In the case of `COc1c(C)cccc1C(=O)NC(=S)Nc1ccccc1N1CCCC1`, the inhibition is reported as inactive: -10%. `CCOc1cc(S(=O)(=O)Nc2ccncc2)ccc1F` was tested, and the inhibition was inconclusive: 31.3%. For `CCOC(=O)c1cc(-c2ccc(Cl)s2)[nH]n1`, the inhibition was inconclusive: -6%. `O=S(=O)(Nc1ccc(S(=O)(=O)Nc2nccs2)cc1)c1ccc2c(c1)OCCO2` was tested, and the inhibition was inactive: -4.9%. With `CCOc1cc(/C=N/NC(=O)CN(CCc2ccccc2)S(=O)(=O)c2ccc(NC(C)=O)cc2)ccc1O` the inhibition was inactive: -14.3%. For `O=C(Cc1cccs1)N1CCN(S(=O)(=O)c2ccc(Cl)c(C(F)(F)F)c2)CC1`, the inhibition was inactive: -8.9%. `Clc1ccccc1N1CCN(Cc2ccc(Br)o2)CC1` was tested, and the inhibition was inconclusive: -127%. With `Cn1c(-c2ccc3ccccc3n2)[n+](C)c2ccccc21` the inhibition was inconclusive: -8%. With `CCCc1cc(=O)[nH]c(SCC(=O)c2cc(C)n(C(C)COC)c2C)n1` (stereo unspecified) the inhibition was inconclusive: -5.7%. For `COC(=O)[C@]1(Cc2ccccc2)N[C@H](CN(C)C(=O)c2ccccc2)[C@@H]2C(=O)N(Cc3ccccc3)C(=O)[C@@H]21`, the inhibition was inactive: -1.7%. With `CCN(c1ccccc1)S(=O)(=O)c1ccc(OC)c(NC(=O)COc2ccc(C(C)=O)cc2)c1` the inhibition was inactive: 1.2%. For `CCN(CC)S(=O)(=O)c1cc(NC(=O)C2CSC3(C)CCC(=O)N23)ccc1C` (stereo unspecified), the inhibition was inactive: 4%. For `CN(C)c1ccc(/C=N/NC(=O)CSc2ccccn2)cc1`, the inhibition was inconclusive: -18%. With `CCCN1C=CC(=C2C(=O)c3ccccc3C2=O)C=C1` the inhibition was inactive: -1.4%. In the case of `COc1cc(CN2CCCC(C)C2)cc([N+](=O)[O-])c1O` (stereo unspecified), the inhibition is reported as inactive: -1.7%. For `Cc1ccc(C(=O)NCC(C)NC(=O)c2ccc(C)c([N+](=O)[O-])c2)cc1[N+](=O)[O-]` (stereo unspecified), the inhibition was inconclusive: 16.1%. `CCC(NC(=O)Nc1cc(C)on1)(C(F)(F)F)C(F)(F)F` was tested, and the inhibition was inconclusive: -54.7%. For `C[C@@H]1CCCCO[C@H](CN(C)C(=O)Cc2ccccc2)[C@@H](C)CN([C@H](C)CO)C(=O)c2cc(N(C)C)ccc2O1`, the inhibition was inactive: -1.2%. With `CCOc1cc(C)nc(NCCc2ccc(OC)c(OC)c2)n1` the inhibition was inactive: -8.5%. For `CCn1c(C)cc(O)cc1=O`, the inhibition was inconclusive: -59.9%. For `CCOC(=O)c1sc(NC(=O)CSC(=S)N2CCN(C)CC2)nc1C`, the inhibition was inconclusive: -17.9%. For `CCCCN1CCC(C#N)(Nc2ccccc2)CC1`, the inhibition was inactive: -5.8%. With `COc1ccc(S(=O)(=O)N2CCN(C(=O)c3ccccn3)CC2)cc1` the inhibition was inconclusive: 19.6%. In the case of `COc1ccc2cc(CCNC(=O)c3ccc(S(=O)(=O)N4CCOCC4)cc3)c(=O)[nH]c2c1`, the inhibition is reported as inactive: -9.6%. For `CCC1(C)Cc2c(C#N)c(SC)nc(N3CCOCC3)c2CO1` (stereo unspecified), the inhibition was inconclusive: 1.6%. `CN1C(=O)N(C)C(=O)C2(Cc3ccccc3N3CCCC32)C1=O` (stereo unspecified) was tested, and the inhibition was inconclusive: -45.4%. With `CC(C)C(NC(=O)C1CCCCC1)C(=O)Nc1ccncc1` (stereo unspecified) the inhibition was inconclusive: 24.1%. With `CCOc1c(Cl)cc(CNc2nnnn2C)cc1OC` the inhibition was inconclusive: 15.2%. In the case of `C=CCc1ccc(OCCCNC2CCCC2)c(OC)c1`, the inhibition is reported as inconclusive: 4.2%. In the case of `Cc1ccc(-c2nc3ncccc3o2)cc1NC(=O)C(C)(C)C`, the inhibition is reported as inactive: -5.2%. For `CCC1Oc2ccc(C)cc2N(CC(=O)N2CCCC2)C1=O` (stereo unspecified), the inhibition was inconclusive: -40.3%. For `CC(O)c1cccc(N=Cc2ccc3ccccc3c2O)c1` (stereo unspecified), the inhibition was inconclusive: 29.1%. `Cc1c(C(=O)NCc2ccccc2F)oc2ccccc12` was tested, and the inhibition was inactive: 3.1%. For `Cc1cc(C)c(NC(=O)CNC(=O)COC(=O)CN2C(=O)NC3(CCCC3)C2=O)c(C)c1`, the inhibition was inconclusive: 7.1%. In the case of `CCCc1cc(=O)[nH]c(NCCc2ccccc2)n1`, the inhibition is reported as inconclusive: 34.6%. `CC#CC[N+](C)(C)CCCCCC` was tested, and the inhibition was inconclusive: 105%. With `CCOC(=O)CON1C(=O)c2ccccc2C1=O` the inhibition was inactive: -1.4%. `C/C(=N\NC1=NCCN1)c1ccc(N)c([N+](=O)[O-])c1` was tested, and the inhibition was inconclusive: 138%. `COC(=O)C(C(=O)OC)c1ncccc1[N+](=O)[O-]` was tested, and the inhibition was inconclusive: -54.7%. In the case of `CCOc1ccc(C2NC(=O)C(C#N)=C(S)N2c2ccc(C)cc2)cc1OC` (stereo unspecified), the inhibition is reported as inconclusive: -5.8%. In the case of `CCOc1ccc(NC(=O)CN(C)C(=O)c2ccc3c(c2)C(=O)N(CCC(C)C)C3=O)cc1OCC`, the inhibition is reported as inactive: 2.5%. With `COC(=O)C(=CC(=CN(C)C)C=C(C(=O)OC)C(=O)OC)C(=O)OC` the inhibition was inconclusive: -9.9%. For `O=C(COc1ccc(Br)cc1CO)Nc1ccccc1`, the inhibition was inactive: -1.2%. For `Fc1ccccc1CN1CCN(c2ncccn2)CC1`, the inhibition was inconclusive: 26.1%. `Cc1ccc(-c2cc(C(F)F)n3ncc(C(=O)N4CCCc5ccccc54)c3n2)cc1` was tested, and the inhibition was inconclusive: 7.5%. With `Cc1ccc(NC(=O)c2cc3ccccc3oc2=N)cc1` the inhibition was inconclusive: -3.5%.
